The target in this assay is SlHB8-GST (tomato (Solanum lycopersicum)). Briefly: pull-down; SlHB8-GST (or GST-null) held on GST-tagged protein purification magnetic beads, SlMYB80-his or SlTDF1-1-his added; detected by blot; both purified.

Chains of the proteins cited; added tags and fusions are not shown. Lines headed by an entry give the natural chain unless they say otherwise; changes in a name come on top.
UniProt A0A3Q7FKM9: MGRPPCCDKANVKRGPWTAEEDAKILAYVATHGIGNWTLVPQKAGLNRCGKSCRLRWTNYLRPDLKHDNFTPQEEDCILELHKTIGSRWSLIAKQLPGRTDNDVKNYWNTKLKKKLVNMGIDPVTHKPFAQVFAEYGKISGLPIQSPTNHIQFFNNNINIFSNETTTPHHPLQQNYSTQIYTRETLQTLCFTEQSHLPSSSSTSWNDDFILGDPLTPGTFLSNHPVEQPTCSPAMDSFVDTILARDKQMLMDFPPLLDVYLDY

Results are given in words; binding and its absence hold for the method and conditions named. Binding calls can cover weak binding; strength is not graded here.

For the substance SlTDF1-1-his (from UniProt A0A3Q7FKM9), the binding entry is recorded as “binds”.

The values are drawn from paper PMC11395002.
